# Data reported in the supplement of paper PMC3334620.
# Whole data set: some 33,000 sequences, median “E-score (-0.5 to 0.5)” near -0.0034, cut for the highest 2% near 0.25. The list shows a part of the results.
# Molecular target: T1, Yap3 (UniProt P38749)
# T1 sequence: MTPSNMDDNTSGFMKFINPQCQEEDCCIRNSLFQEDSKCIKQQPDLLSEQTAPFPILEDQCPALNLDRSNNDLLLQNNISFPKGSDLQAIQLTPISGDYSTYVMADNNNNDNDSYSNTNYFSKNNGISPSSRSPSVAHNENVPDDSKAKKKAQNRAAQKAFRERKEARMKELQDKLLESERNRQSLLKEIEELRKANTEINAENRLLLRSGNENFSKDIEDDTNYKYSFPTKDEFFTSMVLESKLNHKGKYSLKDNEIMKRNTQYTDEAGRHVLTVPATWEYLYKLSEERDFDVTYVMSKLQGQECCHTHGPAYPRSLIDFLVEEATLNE
# Assay: PBM E-score (8-mer binding enrichment) (E-score (-0.5 to 0.5)); higher = stronger / more preferred TF binding
# Details: protein concentration: 100 nM; construct: GST-full length
# Experimental: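 Universal 'all 10-mer' protein binding microarrays (Agilent AMADID 015681) probed with GST-tagged S. cerevisiae TFs (full-length or DBD) made by in vitro transcription/translation (PURExpress), about 100-200 nM. Bound TF was detected with fluorescent anti-GST. Each ungapped 8-mer (which stands for itself and its reverse complement) is scored by the PBM enrichment score (E-score), a modified Wilcoxon-Mann-Whitney statistic from -0.5 to +0.5, computed with the Universal PBM Analysis Suite. Scale: above 0.35 generally sequence-specific binding.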
row,Sequence,PBM E-score
1,CCATACAA,0.0687
2,AAAAATCA,0.124
3,GTTCAGGA,-0.135
4,CCGAAAAA,0.0899
5,AGGTGTCA,-0.00693
6,TGTTCAAA,0.0771
7,GGGTGCGA,-0.00811
8,CTTAGGAA,-0.129
9,GAGACGAC,-0.0834
10,CAAATTAC,0.144
11,GTCTGGCA,-0.0671
12,AACTTAGG,0.00592
13,TCAACTAA,0.124
14,GACGTTAA,0.142
15,AGAGTAAC,-0.00051
16,ACGATAGG,-0.033
17,TGTGTAAA,0.167
18,ACCGTAGT,-0.1
19,ATCATAGG,-0.0419
20,AACAATCA,0.165
21,CAATCACA,0.143
22,ATGAATTC,0.204

row,Sequence,PBM E-score
1,AAACCCAA,0.185
2,GCGTTAGC,-0.00029
3,ACCCGAAG,-0.0881
4,CACTTTCC,0.0732
5,AAGTTGCG,0.00812
6,AATGTTGC,0.0681
7,ATAGCAAT,0.215
8,GGTTGCGA,0.022
9,CGGGGTTA,0.0134
10,AAGGCCGC,-0.0825
11,AGATTGGC,-0.133
12,CCCGCTCC,-0.347
13,CAGGCACG,-0.127
14,TATCGAGA,-0.0314
15,AGAGCAGG,0.00606
16,GGTAGCCA,-0.00488
17,CCCAGGGG,-0.423
18,ACAAGACT,-0.0784
19,CTTTCATA,0.252
20,GTGACAAC,0.0975
21,AAGCCTCC,-0.0921
22,TAGGGAAA,0.145

row,Sequence,PBM E-score
1,CTGTGTAA,-0.0425
2,AATCATAT,0.142
3,CAGGATAC,-0.0223
4,GAAAGACC,-0.139
5,CGACTCTC,-0.0925
6,ACGGTTCG,-0.163
7,GCTAGAGA,0.0781
8,GAGATGAA,0.043
9,AAAATAGG,0.213
10,CCGGCGCC,-0.132
11,GGTGGACA,-0.0281
12,AAATTCGG,0.153
13,CTATATCA,0.264
14,ATAGAGTG,0.0278
15,CTTGATTA,0.0486
16,ATGACCAG,0.0555
17,AGATGAAC,0.132
18,ACGTTCGA,-0.067
19,AAAATGTA,0.163
20,GAACCATC,0.0683
21,CACGCGGA,0.223
22,CCCTGACG,-0.168

row,Sequence,PBM E-score
1,CCCGGGGC,-0.331
2,ATGTACAC,0.0542
3,GACCAAAA,0.115
4,GCGGATAA,0.156
5,AACTCAGT,-0.0297
6,GATAGTCA,-0.12
7,GTATGGAA,0.0621
8,GCTCTTAA,-0.0627
9,GGGGTAGA,0.0701
10,CCTGTGAA,0.0681
11,AATAGCTA,0.0193
12,CCGCCAAA,-0.0113
13,AACTACAC,0.0971
14,CCACCCAG,-0.0491
15,TACACAAA,0.214
16,GGGCTCCA,-0.262
17,CAGGTACA,-0.0994
18,CATATTCC,-0.0894
19,AAAGCATA,0.188
20,ATCTATAA,0.0384

# Looked up one by one from the list above, 4 records:
row,Sequence,PBM E-score
5,AACTCAGT,-0.0297
6,GATAGTCA,-0.12
16,GGGCTCCA,-0.262
2,ATGTACAC,0.0542
